# Data: PubChem BioAssay AID720511 (Broad Institute, 2013)
# Out of some 350,000 compounds screened, about 1,300 (0.37%) were called active. The shares of active, inactive and inconclusive entries below differ from those in the screen.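 The calls were made as follows: active = mean added fluorescence quench of at least 8% versus neutral control, with both replicates also reaching 8%; inconclusive = only one of the mean or replicate conditions met; inactive = mean below 8% and not both replicates reaching 8%.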
# Assay: F508del CFTR correction, initial screen, CFBE line, single point (AID 720511);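 also: cells transiently co-express mutant CFTR-F508del with the halide-sensitive YFP; corrector assay measuring rescue of mutant channel to the surface after 24 h compound exposure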
# Conditions: CFBE cells, YFP halide quenching, at 7.58 µM, active compounds read high, % fluorescence drop versus neutral controls, stimulated with forskolin plus potentiator P3
row,Compound,activity (quench increase)
1,CN1CCC(OC(=O)c2cc3cc(Cl)cc(Cl)c3oc2=O)CC1,inconclusive: 8.35%
2,CCOC(=O)N1CCN(C(=O)c2ccccc2N(Cc2ccccc2)S(=O)(=O)c2ccc(OC)cc2)CC1,inconclusive: 9.67%
3,NS(=O)(=O)c1ccc(CNC(=O)/C=C/c2ccccc2[N+](=O)[O-])cc1,inconclusive: 8.61%
4,CC(=O)Nc1ccc(Nc2nc(C(F)(F)F)nc3c2nnn3Cc2ccccc2Cl)cc1,inconclusive: 11.9%
5,CO[C@@H]1CN(C)C(=O)c2ccc(NC(=O)Nc3c(C)noc3C)cc2OC[C@@H](C)NC[C@@H]1C,inconclusive: 10.1%
6,CSc1ccc(Cl)c(C(=O)Nc2ccc(Cl)cn2)c1,inconclusive: 8.58%
7,N#CC1=C(N)Oc2ccc3ccccc3c2C1c1cccnc1 (stereo not given),inconclusive: 8.03%
8,Clc1ccc(CSc2nncn2-c2ccc3c(c2)OCCO3)cc1,active: 10.7%
9,CC(=O)Nc1cccc(-c2ccnc3c2CC(C(=O)NCc2cccnc2)O3)c1 (stereo not given),inactive: 2.07%
10,O=C(COC(=O)/C=C/c1ccc(S(=O)(=O)N2CCOCC2)cc1)NCc1ccc(F)cc1,inconclusive: 8.06%
11,COCC#Cc1cnc2c(c1)C(=O)N([C@H](C)CO)C[C@@H](C)[C@H](CN(C)C(=O)NC1CCCC1)O2,inactive: -0.097%
12,Cc1cccnc1NC(=O)CCCN1C(=O)c2ccccc2C1=O,inactive: -3.16%
13,C[C@@H]1CN([C@H](C)CO)C(=O)c2cc(NC(=O)Cc3cn(C)c4ccccc34)ccc2O[C@@H]1CN(C)Cc1ccc(Cl)c(Cl)c1,active: 8.14%
14,CCN1CCCC(OC(=O)c2cc(-c3ccccc3Cl)nc3ccccc23)C1 (stereo not given),active: 11.6%
15,CCOc1ccc2nc(NCCCNC(=O)c3cc(OC)c(OC)c(OC)c3)c(C#N)cc2c1,inconclusive: 8.25%
16,CN1c2ccc(-c3ccccc3)cc2[C@H]2[C@H](CCN2C(=O)NC2CCCCC2)[C@@H]1CO,inactive: 3.22%
17,COc1ccccc1NC(=O)CSc1ccc(-c2ccccn2)nn1,active: 8.06%
18,CC1CC(C)(C)Nc2ccc(N=O)cc21 (stereo not given),inconclusive: 12.2%
19,COc1ccc(NC(=O)Nc2cccc3c2O[C@@H](CN(C)C)[C@H](C)CN([C@H](C)CO)C3=O)cc1,inactive: 0.899%
20,CCC(=O)c1ccccc1OCCCN1CCC(Cc2ccccc2)CC1,inconclusive: 10%
21,Clc1ccc(CSc2ccc(-c3cccnc3)nn2)cc1,inconclusive: 8.41%
22,Cc1ccc(S(=O)(=O)NCC[C@H]2CC[C@H](NC(=O)Nc3cccc(F)c3)[C@@H](CO)O2)cc1,inactive: -1.49%
23,CCOc1cc(Br)cc(/C=C2\SC(=Nc3ccccc3)NC2=O)c1O,inconclusive: 8.72%

row,Compound,activity (quench increase)
1,COc1ccc(-c2cn(CC[C@@H]3CC[C@H](NC(=O)CCN4CCCCC4)[C@H](CO)O3)nn2)cc1,inactive: -3.07%
2,Cn1c(CC(=O)NN)c(Sc2ccccc2)c2ccccc21,active: 11.8%
3,COc1ccc(Br)cc1C(=O)Nc1cccc2ncccc12,inconclusive: 12.3%
4,CC1CCN(Cc2c(C(=O)N/N=C/c3cc(Br)ccc3O)nnn2-c2nonc2N)CC1,inconclusive: 9.18%
5,Cc1noc(C)c1NC(=O)Nc1cccc2c1O[C@H](CN(C)C(=O)Nc1cccc3ccccc13)[C@@H](C)CN([C@H](C)CO)C2=O,inactive: -0.627%
6,Cc1cccc(Nc2cc(C)nc3ccccc23)c1,inconclusive: 8.84%
7,COc1ccc2cc(CN(CC3CCCO3)C(=O)Nc3ccccc3OC)c(=O)[nH]c2c1 (stereo not given),inconclusive: 8.06%
8,COc1ccc(CCn2c(NN)nc3c2c(=O)[nH]c(=O)n3C)cc1,inconclusive: 9.39%
9,COc1cc(/C=N/N2C(=O)CSC2=S)cc(Br)c1O,inconclusive: 13.6%
10,Cc1ccc(O)c(C(=O)c2cc(C#N)c(=O)n(-c3nccs3)c2)c1,inconclusive: 8.7%
11,Cc1ccc(S(=O)(=O)Nc2ccc3c(c2)C(=O)N([C@@H](C)CO)C[C@@H](C)[C@@H](CN(C)Cc2ccc(C(F)(F)F)cc2)OCCCC[C@@H](C)O3)cc1,inconclusive: 8.81%
12,CCCCCCCCN1C(=O)[C@H](CC(=O)N2CCOCC2)C[C@@]2(C(=O)OC)CCCCC=C12,inactive: 3.87%
13,Cc1ccc(S(=O)(=O)Nc2ccc3c(c2)C(=O)N([C@@H](C)CO)C[C@H](C)[C@@H](CN(C)Cc2ccc(Cl)c(Cl)c2)OCCCC[C@@H](C)O3)cc1,inconclusive: 8.13%
14,COc1ccc(S(=O)(=O)N2CC[C@@H]3[C@H](CO)Nc4ccc(-c5ccc(C#N)cc5)cc4[C@@H]32)cc1,inconclusive: 4.05%
15,CCCC(=O)Nc1nc2ccc(NC(=O)c3ccccc3F)cc2s1,inconclusive: 7.28%
16,CC1=NOC(=O)/C1=C\c1ccc(-c2ccccc2Br)o1,inconclusive: 13.6%
17,Nc1c(C(=O)c2cccs2)sc2nsc(SCCN3CCCCC3)c12,inconclusive: 12.8%
18,O=C(Nc1cccc(C2=NCCN2)c1)Nc1cccc(C2=NCCN2)c1,active: 8.33%
19,Cc1onc(-c2c(F)cccc2Cl)c1C(=O)N1CCN(c2ncccn2)CC1,inconclusive: 8.42%
20,COc1ccc(Cn2c(O)c(/C=N/NC(=O)c3cccnc3)c3ccccc3c2=O)cc1,inconclusive: 10.4%
21,O=C1C=C(Nc2ccc(Cl)cc2Cl)CC(c2ccco2)C1 (stereo not given),inconclusive: 10.2%
22,CCC(=O)Nc1ccc2c(c1)C(=O)N(C)[C@@H]1CC[C@@H](CC(=O)NC3Cc4ccccc4C3)O[C@@H]1CO2,inactive: -1.65%
23,CN1c2ccc(-c3ccc(C#N)cc3)cc2[C@H]2[C@H](CCN2S(=O)(=O)c2cccc(F)c2)[C@@H]1CO,inconclusive: 5.87%

row,Compound,activity (quench increase)
1,COc1cc(/C=C/c2nc3ccccc3c(=O)[nH]2)cc(Cl)c1O,inactive: -1.01%
2,CO[C@@H]1CN(C)C(=O)c2cc(NS(=O)(=O)c3ccc(-c4ccccc4)cc3)ccc2OC[C@H](C)NC[C@H]1C,inactive: -3.97%
3,CSc1ccc(CNc2cccc3ccccc23)cc1,inconclusive: 8.21%
4,CC(C)Nc1ccc(Nc2ccnc3cc4ccccc4cc23)cc1,active: 27.1%
5,O=C(O)C1CSC(c2ccc3c(c2)OCO3)N1 (stereo not given),inactive: 0.349%
6,CC1(C(=O)N2CCCCC2)CCN1C(=O)C1(c2ccccc2)CC1 (stereo not given),inactive: 1.12%
7,CN1c2ccc(-c3ccc(F)cc3)cc2[C@H]2[C@H](CCN2S(=O)(=O)c2ccc(F)cc2)[C@@H]1CO,inconclusive: 7.7%
8,C[C@H]1CCCCO[C@H](CN(C)C(=O)Cc2ccccc2)[C@@H](C)CN([C@@H](C)CO)C(=O)c2cc(N(C)C)ccc2O1,active: 10.8%
9,COc1ccc(CCNC(=O)CCn2c(=O)c3cccn3c3cccnc32)cc1OC,inactive: 4.33%
10,CC(=O)c1c(C)[nH]c(C(=O)Nc2ccc(S(=O)(=O)N(C)C)cc2)c1C,inactive: 0.0105%
11,COC(=O)Cn1c(=NC(=O)c2cc(-c3cccs3)nc3ccccc23)sc2cc(S(N)(=O)=O)ccc21,active: 9.49%
12,COc1ccccc1N1C(=S)N=C(Nc2c(C)cccc2C)C12CCCC2,inconclusive: 8.03%
13,C[C@H]1CCCCO[C@H](CN(C)C(=O)Nc2ccccc2)[C@@H](C)CN([C@@H](C)CO)C(=O)c2cc(NC(=O)Nc3ccc(C(F)(F)F)cc3)ccc2O1,inconclusive: 8.15%
14,Cc1nn(-c2ccc(F)cc2)c(Cl)c1/C=C/C(=O)N1CCNC(=O)C1,inconclusive: 9.4%
15,COc1cccc(NC(=S)N(Cc2ccc(Cl)cc2)Cc2ccc(C(=O)O)cc2)c1,inactive: 3.62%
16,Cc1c(C)c2c(OCC(=O)N3CCC(O)CC3)cc3c(c2oc1=O)CCC(C)(C)O3,active: 9.22%
17,CS(=O)(=O)N1CC(=O)N2[C@@H](CO)[C@H](c3ccc(C#Cc4ccc(F)cc4)cc3)[C@@H]2C1,inconclusive: 9.4%
18,O=C(CN1CCN(S(=O)(=O)c2ccc(Cl)c(Cl)c2)CC1)N1CCCC1,active: 10.7%
19,O=C(C[C@H]1CC[C@H]2[C@@H](COC[C@@H](O)CN2C(=O)c2cccnc2)O1)Nc1ccc(-c2ccccc2)cc1,inactive: 0.142%
20,C[C@@H]1CCCCO[C@H](CN(C)C(=O)Nc2ccc(C(F)(F)F)cc2)[C@@H](C)CN([C@@H](C)CO)C(=O)c2cc(NC(=O)Cc3ccccc3)ccc2O1,inactive: -2.06%
21,O=c1c2c3nc4ccccc4nc3n(/N=C/c3ccccn3)c2ncn1-c1ccccc1,inconclusive: 8.77%
22,COc1ccccc1S(=O)(=O)N[C@H]1CC[C@@H](CC(=O)N2CCN(C)CC2)O[C@H]1CO,inactive: -2.22%
23,C[C@@H]1CN([C@@H](C)CO)C(=O)Cc2cc(N(C)C)ccc2O[C@@H]1CN(C)Cc1ccc(C(=O)Nc2ccccc2N)cc1,active: 15.1%

row,Compound,activity (quench increase)
1,COc1ccccc1S(=O)(=O)N1CC[C@@H]2[C@@H](CO)N(C)c3ccc(-c4ccc(F)cc4)cc3[C@@H]21,active: 12.4%
2,O=C(C1CCCC1)N1CC(=O)N2[C@H](CO)[C@@H](c3ccc(-c4ccccc4F)cc3)[C@@H]2C1,inconclusive: 8.1%
3,Cc1nc2ccccc2c(=O)n1/N=C/c1ccc2ccccc2c1O,inconclusive: 9.87%
4,O=C(COC(=O)[C@@H]1CC(O)CN1S(=O)(=O)c1ccccc1[N+](=O)[O-])c1ccccc1 (stereo not given in full),inactive: 0.675%
5,Cc1ccc(Cl)cc1NC(=S)N/N=C/c1cccc2ccccc12,inconclusive: 9.45%
6,COc1ccc2oc(-c3ccccc3[N+](=O)[O-])cc(=O)c2c1,inconclusive: 6.67%
7,C[C@H](CO)N1C[C@H](C)[C@H](CN(C)Cc2ccc(Cl)c(Cl)c2)Oc2ccc(NS(=O)(=O)c3cccs3)cc2C1=O,inconclusive: 9.56%
8,Cc1ccc2nc(/N=C(\N)NC(=O)NC3CCCCC3)nc(C)c2c1,inconclusive: 8.57%
9,COc1cccc(-c2ccc([C@H]3[C@@H](CO)N(C(=O)c4ccccn4)[C@H]3C#N)cc2)c1,active: 15%
10,COc1ccc(OC)c2c1C(=O)C(Cl)=C(Cl)C2=O,inconclusive: 11.4%
11,Cc1nnc(N2C(=O)c3cccc4c([N+](=O)[O-])ccc(c34)C2=O)s1,inconclusive: 9.33%
12,COc1ccccc1C(=O)Nc1ccc2c(c1)nc(CCNC(=O)c1ccco1)n2C,active: 10.4%
13,O=C(Cn1nnc2ccccc2c1=O)Nc1cccc(S(=O)(=O)N2CCOCC2)c1,inconclusive: 8.6%
14,CCN(CC)C(=O)C(C)N(C#N)c1nc(Cl)nc(N(C)C)n1 (stereo not given),inconclusive: 9.29%
15,Cc1nn(-c2ccccc2)c2nc(-c3cccs3)cc(C(=O)NN)c12,inconclusive: 17%
16,CCC(=O)N1C[C@H](C)[C@@H](OC)CN(C)C(=O)c2cc(NC(=O)Nc3cccc(F)c3)ccc2OC[C@@H]1C,inactive: -2.35%
17,C[C@@H]1CN([C@@H](C)CO)C(=O)Cc2cc(NS(=O)(=O)c3ccc(F)cc3)ccc2O[C@@H]1CN(C)Cc1ccc(Cl)c(Cl)c1,inconclusive: 8.48%
18,CO[C@@H]1CN(C)C(=O)c2ccc(NS(C)(=O)=O)cc2OC[C@H](C)N(C(=O)C2CCC2)C[C@H]1C,inconclusive: 8.23%
19,COc1cc([N+](=O)[O-])ccc1NC(=S)N1CCN(c2ccccn2)CC1,inconclusive: 9.93%
20,CCOC(=O)c1c(N/N=C/c2cccnc2)n[nH]c1C,inconclusive: 8.29%
21,COc1ccc(-c2nc(NC(=O)c3n[nH]c(=O)c4ccccc34)sc2C)cc1,inconclusive: 8.32%

# Not a retest: entries from further up.
row,Compound,activity (quench increase)
2,O=C(C1CCCC1)N1CC(=O)N2[C@H](CO)[C@@H](c3ccc(-c4ccccc4F)cc3)[C@@H]2C1,inconclusive: 8.1%
3,Cc1nc2ccccc2c(=O)n1/N=C/c1ccc2ccccc2c1O,inconclusive: 9.87%
4,O=C(COC(=O)[C@@H]1CC(O)CN1S(=O)(=O)c1ccccc1[N+](=O)[O-])c1ccccc1 (stereo not given in full),inactive: 0.675%
5,Cc1ccc(Cl)cc1NC(=S)N/N=C/c1cccc2ccccc12,inconclusive: 9.45%
6,COc1ccc2oc(-c3ccccc3[N+](=O)[O-])cc(=O)c2c1,inconclusive: 6.67%
7,C[C@H](CO)N1C[C@H](C)[C@H](CN(C)Cc2ccc(Cl)c(Cl)c2)Oc2ccc(NS(=O)(=O)c3cccs3)cc2C1=O,inconclusive: 9.56%
8,Cc1ccc2nc(/N=C(\N)NC(=O)NC3CCCCC3)nc(C)c2c1,inconclusive: 8.57%
9,COc1cccc(-c2ccc([C@H]3[C@@H](CO)N(C(=O)c4ccccn4)[C@H]3C#N)cc2)c1,active: 15%
10,COc1ccc(OC)c2c1C(=O)C(Cl)=C(Cl)C2=O,inconclusive: 11.4%
11,Cc1nnc(N2C(=O)c3cccc4c([N+](=O)[O-])ccc(c34)C2=O)s1,inconclusive: 9.33%
12,COc1ccccc1C(=O)Nc1ccc2c(c1)nc(CCNC(=O)c1ccco1)n2C,active: 10.4%
13,O=C(Cn1nnc2ccccc2c1=O)Nc1cccc(S(=O)(=O)N2CCOCC2)c1,inconclusive: 8.6%
14,CCN(CC)C(=O)C(C)N(C#N)c1nc(Cl)nc(N(C)C)n1 (stereo not given),inconclusive: 9.29%
15,Cc1nn(-c2ccccc2)c2nc(-c3cccs3)cc(C(=O)NN)c12,inconclusive: 17%
